B1: full-length Cdon (cell adhesion molecule-related/downregulated by oncogenes), non-tagged (receptor, UniProt Q32MD9 25-1250)
chain: DLAPYFISEPLSAVQKLGRPVVLHCSAKPVTARISWLHNGKRLDRNTEQIKIHRGTLTILSLNPSLSGCYQCVANNSVGAVVSGPATVSAAALGDFDSSTMHVITAEEKNTGFIGCRVPESNPKAEVRYKIRGKWLKHSTGNYIILPSGNLQVLNVSSKDKGSYKCAAYNPVTSELKVEPTGRKLLVSRPSSNGFHILHPALSQALAVLPHSPVTLECVVSGVPASQVYWLKDGQDAVAGSNWRRLYSHLATASIDPADSGNYSCVVGNKSGDVKHVTYMVNVLEHASISKGLHDQKVSLGATVHFTCDVHGNPAPNRTWFHNAQPIHPSSRHLTEGNVLKITRVVMEDSGLYQCVADNGIGFMQSTGRLQIEQDSGWKPVIVTAPANIEVMDGDFVTLSCNATGVPVPVIHWYGRHGLITSHPSQVLRSKPRKSHLFRPGDLDLEPVYLIMSQAGSSSLSIQAVTLEHAGKYTCEATNKHGSTQSEAFLTVVPFETNTKAESVTPSEASQNDERDPQDGSESSLLNLFPVKVHPSGVELPAERNASVPDAPNILSPPQTHMPDTYNLVWRAGRDGGMPINAYFVKYRKLDDGSGAVGSWHTVRVPGSENELHLTELEPSSLYEVLMVARSAVGEGQPAMLTFRTSKEKMASSKNTQASFPPVGVPKRPVTAEASNSNFGVVLTDSSRHSGVPEAPDRPTISMASETSVYVTWIPRANGGSPITAFKVEYKRMRTSDWLVAAEDIPPSKLSVEVRSLEPGSIYKFRVIAINHYGESFRSSASRPYQVAGFPNRFSNRPITGPHIAYTEAVSDTQIMLKWTYVPSSNNNTPIQGFYIYYRPTDSDNDSDYKRDVVEGSKQWHTIGHLQPETSYDIKMQCFNEGGESEFSNVMICETKVKRVPGASDYPVKELSTPPSSSGNAGNVGPATSPARSSDMLYLIVGCVLGVMVLILMVFIALCLWKSRQQSTIQKYDPPGYLYQGSEINGQMVEYTTLSGAARINGSVHGGFLSNGCSHLHHKGPSGVNGTLSGNINGGLYSAHTNSLTRACVEFEHPHHLVNSGGVYTAVPQMDPLECINCRNCRNNNRCFTKTNSPLPVVPVVASYPQGGLEMKPLNAMKVPVCPASTVPDHGQLPDDCVKDSVAPIPTQHTCCQDNISDINSDSTEDTAEFSRGDSSGHSEAEDKVFSWNPLILSPVLEDCGEKTARSPPGPPLDGLSVVLQQAQET
B2: Cdon-Δ983-1012, which lacks amino acids 983–1012 (receptor, UniProt Q32MD9)
chain: DLAPYFISEPLSAVQKLGRPVVLHCSAKPVTARISWLHNGKRLDRNTEQIKIHRGTLTILSLNPSLSGCYQCVANNSVGAVVSGPATVSAAALGDFDSSTMHVITAEEKNTGFIGCRVPESNPKAEVRYKIRGKWLKHSTGNYIILPSGNLQVLNVSSKDKGSYKCAAYNPVTSELKVEPTGRKLLVSRPSSNGFHILHPALSQALAVLPHSPVTLECVVSGVPASQVYWLKDGQDAVAGSNWRRLYSHLATASIDPADSGNYSCVVGNKSGDVKHVTYMVNVLEHASISKGLHDQKVSLGATVHFTCDVHGNPAPNRTWFHNAQPIHPSSRHLTEGNVLKITRVVMEDSGLYQCVADNGIGFMQSTGRLQIEQDSGWKPVIVTAPANIEVMDGDFVTLSCNATGVPVPVIHWYGRHGLITSHPSQVLRSKPRKSHLFRPGDLDLEPVYLIMSQAGSSSLSIQAVTLEHAGKYTCEATNKHGSTQSEAFLTVVPFETNTKAESVTPSEASQNDERDPQDGSESSLLNLFPVKVHPSGVELPAERNASVPDAPNILSPPQTHMPDTYNLVWRAGRDGGMPINAYFVKYRKLDDGSGAVGSWHTVRVPGSENELHLTELEPSSLYEVLMVARSAVGEGQPAMLTFRTSKEKMASSKNTQASFPPVGVPKRPVTAEASNSNFGVVLTDSSRHSGVPEAPDRPTISMASETSVYVTWIPRANGGSPITAFKVEYKRMRTSDWLVAAEDIPPSKLSVEVRSLEPGSIYKFRVIAINHYGESFRSSASRPYQVAGFPNRFSNRPITGPHIAYTEAVSDTQIMLKWTYVPSSNNNTPIQGFYIYYRPTDSDNDSDYKRDVVEGSKQWHTIGHLQPETSYDIKMQCFNEGGESEFSNVMICETKVKRVPGASDYPVKELSTPPSSSGNAGNVGPATSPARSSDMLYLIVGCVLGVMVLILMVFIALVEYTTLSGAARINGSVHGGFLSNGCSHLHHKGPSGVNGTLSGNINGGLYSAHTNSLTRACVEFEHPHHLVNSGGVYTAVPQMDPLECINCRNCRNNNRCFTKTNSPLPVVPVVASYPQGGLEMKPLNAMKVPVCPASTVPDHGQLPDDCVKDSVAPIPTQHTCCQDNISDINSDSTEDTAEFSRGDSSGHSEAEDKVFSWNPLILSPVLEDCGEKTARSPPGPPLDGLSVVLQQAQET
B3: Cdon-Δ1013-1042, which lacks amino acids 1013–1042 (receptor, UniProt Q32MD9)
chain: DLAPYFISEPLSAVQKLGRPVVLHCSAKPVTARISWLHNGKRLDRNTEQIKIHRGTLTILSLNPSLSGCYQCVANNSVGAVVSGPATVSAAALGDFDSSTMHVITAEEKNTGFIGCRVPESNPKAEVRYKIRGKWLKHSTGNYIILPSGNLQVLNVSSKDKGSYKCAAYNPVTSELKVEPTGRKLLVSRPSSNGFHILHPALSQALAVLPHSPVTLECVVSGVPASQVYWLKDGQDAVAGSNWRRLYSHLATASIDPADSGNYSCVVGNKSGDVKHVTYMVNVLEHASISKGLHDQKVSLGATVHFTCDVHGNPAPNRTWFHNAQPIHPSSRHLTEGNVLKITRVVMEDSGLYQCVADNGIGFMQSTGRLQIEQDSGWKPVIVTAPANIEVMDGDFVTLSCNATGVPVPVIHWYGRHGLITSHPSQVLRSKPRKSHLFRPGDLDLEPVYLIMSQAGSSSLSIQAVTLEHAGKYTCEATNKHGSTQSEAFLTVVPFETNTKAESVTPSEASQNDERDPQDGSESSLLNLFPVKVHPSGVELPAERNASVPDAPNILSPPQTHMPDTYNLVWRAGRDGGMPINAYFVKYRKLDDGSGAVGSWHTVRVPGSENELHLTELEPSSLYEVLMVARSAVGEGQPAMLTFRTSKEKMASSKNTQASFPPVGVPKRPVTAEASNSNFGVVLTDSSRHSGVPEAPDRPTISMASETSVYVTWIPRANGGSPITAFKVEYKRMRTSDWLVAAEDIPPSKLSVEVRSLEPGSIYKFRVIAINHYGESFRSSASRPYQVAGFPNRFSNRPITGPHIAYTEAVSDTQIMLKWTYVPSSNNNTPIQGFYIYYRPTDSDNDSDYKRDVVEGSKQWHTIGHLQPETSYDIKMQCFNEGGESEFSNVMICETKVKRVPGASDYPVKELSTPPSSSGNAGNVGPATSPARSSDMLYLIVGCVLGVMVLILMVFIALCLWKSRQQSTIQKYDPPGYLYQGSEINGQMKGPSGVNGTLSGNINGGLYSAHTNSLTRACVEFEHPHHLVNSGGVYTAVPQMDPLECINCRNCRNNNRCFTKTNSPLPVVPVVASYPQGGLEMKPLNAMKVPVCPASTVPDHGQLPDDCVKDSVAPIPTQHTCCQDNISDINSDSTEDTAEFSRGDSSGHSEAEDKVFSWNPLILSPVLEDCGEKTARSPPGPPLDGLSVVLQQAQET
B4: Cdon-ΔMC, which lacks amino acids 1074–1250 (domain or fragment, UniProt Q32MD9 25-1073)
chain: DLAPYFISEPLSAVQKLGRPVVLHCSAKPVTARISWLHNGKRLDRNTEQIKIHRGTLTILSLNPSLSGCYQCVANNSVGAVVSGPATVSAAALGDFDSSTMHVITAEEKNTGFIGCRVPESNPKAEVRYKIRGKWLKHSTGNYIILPSGNLQVLNVSSKDKGSYKCAAYNPVTSELKVEPTGRKLLVSRPSSNGFHILHPALSQALAVLPHSPVTLECVVSGVPASQVYWLKDGQDAVAGSNWRRLYSHLATASIDPADSGNYSCVVGNKSGDVKHVTYMVNVLEHASISKGLHDQKVSLGATVHFTCDVHGNPAPNRTWFHNAQPIHPSSRHLTEGNVLKITRVVMEDSGLYQCVADNGIGFMQSTGRLQIEQDSGWKPVIVTAPANIEVMDGDFVTLSCNATGVPVPVIHWYGRHGLITSHPSQVLRSKPRKSHLFRPGDLDLEPVYLIMSQAGSSSLSIQAVTLEHAGKYTCEATNKHGSTQSEAFLTVVPFETNTKAESVTPSEASQNDERDPQDGSESSLLNLFPVKVHPSGVELPAERNASVPDAPNILSPPQTHMPDTYNLVWRAGRDGGMPINAYFVKYRKLDDGSGAVGSWHTVRVPGSENELHLTELEPSSLYEVLMVARSAVGEGQPAMLTFRTSKEKMASSKNTQASFPPVGVPKRPVTAEASNSNFGVVLTDSSRHSGVPEAPDRPTISMASETSVYVTWIPRANGGSPITAFKVEYKRMRTSDWLVAAEDIPPSKLSVEVRSLEPGSIYKFRVIAINHYGESFRSSASRPYQVAGFPNRFSNRPITGPHIAYTEAVSDTQIMLKWTYVPSSNNNTPIQGFYIYYRPTDSDNDSDYKRDVVEGSKQWHTIGHLQPETSYDIKMQCFNEGGESEFSNVMICETKVKRVPGASDYPVKELSTPPSSSGNAGNVGPATSPARSSDMLYLIVGCVLGVMVLILMVFIALCLWKSRQQSTIQKYDPPGYLYQGSEINGQMVEYTTLSGAARINGSVHGGFLSNGCSHLHHKGPSGVNGTLSGNINGGLYSAHTNSLTRACV
B5: Cdon-ΔC, which lacks amino acids 1163–1250 (domain or fragment, UniProt Q32MD9 25-1162)
chain: DLAPYFISEPLSAVQKLGRPVVLHCSAKPVTARISWLHNGKRLDRNTEQIKIHRGTLTILSLNPSLSGCYQCVANNSVGAVVSGPATVSAAALGDFDSSTMHVITAEEKNTGFIGCRVPESNPKAEVRYKIRGKWLKHSTGNYIILPSGNLQVLNVSSKDKGSYKCAAYNPVTSELKVEPTGRKLLVSRPSSNGFHILHPALSQALAVLPHSPVTLECVVSGVPASQVYWLKDGQDAVAGSNWRRLYSHLATASIDPADSGNYSCVVGNKSGDVKHVTYMVNVLEHASISKGLHDQKVSLGATVHFTCDVHGNPAPNRTWFHNAQPIHPSSRHLTEGNVLKITRVVMEDSGLYQCVADNGIGFMQSTGRLQIEQDSGWKPVIVTAPANIEVMDGDFVTLSCNATGVPVPVIHWYGRHGLITSHPSQVLRSKPRKSHLFRPGDLDLEPVYLIMSQAGSSSLSIQAVTLEHAGKYTCEATNKHGSTQSEAFLTVVPFETNTKAESVTPSEASQNDERDPQDGSESSLLNLFPVKVHPSGVELPAERNASVPDAPNILSPPQTHMPDTYNLVWRAGRDGGMPINAYFVKYRKLDDGSGAVGSWHTVRVPGSENELHLTELEPSSLYEVLMVARSAVGEGQPAMLTFRTSKEKMASSKNTQASFPPVGVPKRPVTAEASNSNFGVVLTDSSRHSGVPEAPDRPTISMASETSVYVTWIPRANGGSPITAFKVEYKRMRTSDWLVAAEDIPPSKLSVEVRSLEPGSIYKFRVIAINHYGESFRSSASRPYQVAGFPNRFSNRPITGPHIAYTEAVSDTQIMLKWTYVPSSNNNTPIQGFYIYYRPTDSDNDSDYKRDVVEGSKQWHTIGHLQPETSYDIKMQCFNEGGESEFSNVMICETKVKRVPGASDYPVKELSTPPSSSGNAGNVGPATSPARSSDMLYLIVGCVLGVMVLILMVFIALCLWKSRQQSTIQKYDPPGYLYQGSEINGQMVEYTTLSGAARINGSVHGGFLSNGCSHLHHKGPSGVNGTLSGNINGGLYSAHTNSLTRACVEFEHPHHLVNSGGVYTAVPQMDPLECINCRNCRNNNRCFTKTNSPLPVVPVVASYPQGGLEMKPLNAMKVPVCPASTVPDHGQLPDDCV

Protein sequences, listed by entry. Tags and fused reporters are not part of them. Lines headed by an entry give the natural chain unless they say otherwise; changes in a name come on top. Chains listed by the source or under a name are the forms on record and can include a tag or linker.
3 × FLAG-tagged ZSWIM8 (zinc finger SWIM type containing 8), expressed in HEK293T cells (A7E2V4, form named): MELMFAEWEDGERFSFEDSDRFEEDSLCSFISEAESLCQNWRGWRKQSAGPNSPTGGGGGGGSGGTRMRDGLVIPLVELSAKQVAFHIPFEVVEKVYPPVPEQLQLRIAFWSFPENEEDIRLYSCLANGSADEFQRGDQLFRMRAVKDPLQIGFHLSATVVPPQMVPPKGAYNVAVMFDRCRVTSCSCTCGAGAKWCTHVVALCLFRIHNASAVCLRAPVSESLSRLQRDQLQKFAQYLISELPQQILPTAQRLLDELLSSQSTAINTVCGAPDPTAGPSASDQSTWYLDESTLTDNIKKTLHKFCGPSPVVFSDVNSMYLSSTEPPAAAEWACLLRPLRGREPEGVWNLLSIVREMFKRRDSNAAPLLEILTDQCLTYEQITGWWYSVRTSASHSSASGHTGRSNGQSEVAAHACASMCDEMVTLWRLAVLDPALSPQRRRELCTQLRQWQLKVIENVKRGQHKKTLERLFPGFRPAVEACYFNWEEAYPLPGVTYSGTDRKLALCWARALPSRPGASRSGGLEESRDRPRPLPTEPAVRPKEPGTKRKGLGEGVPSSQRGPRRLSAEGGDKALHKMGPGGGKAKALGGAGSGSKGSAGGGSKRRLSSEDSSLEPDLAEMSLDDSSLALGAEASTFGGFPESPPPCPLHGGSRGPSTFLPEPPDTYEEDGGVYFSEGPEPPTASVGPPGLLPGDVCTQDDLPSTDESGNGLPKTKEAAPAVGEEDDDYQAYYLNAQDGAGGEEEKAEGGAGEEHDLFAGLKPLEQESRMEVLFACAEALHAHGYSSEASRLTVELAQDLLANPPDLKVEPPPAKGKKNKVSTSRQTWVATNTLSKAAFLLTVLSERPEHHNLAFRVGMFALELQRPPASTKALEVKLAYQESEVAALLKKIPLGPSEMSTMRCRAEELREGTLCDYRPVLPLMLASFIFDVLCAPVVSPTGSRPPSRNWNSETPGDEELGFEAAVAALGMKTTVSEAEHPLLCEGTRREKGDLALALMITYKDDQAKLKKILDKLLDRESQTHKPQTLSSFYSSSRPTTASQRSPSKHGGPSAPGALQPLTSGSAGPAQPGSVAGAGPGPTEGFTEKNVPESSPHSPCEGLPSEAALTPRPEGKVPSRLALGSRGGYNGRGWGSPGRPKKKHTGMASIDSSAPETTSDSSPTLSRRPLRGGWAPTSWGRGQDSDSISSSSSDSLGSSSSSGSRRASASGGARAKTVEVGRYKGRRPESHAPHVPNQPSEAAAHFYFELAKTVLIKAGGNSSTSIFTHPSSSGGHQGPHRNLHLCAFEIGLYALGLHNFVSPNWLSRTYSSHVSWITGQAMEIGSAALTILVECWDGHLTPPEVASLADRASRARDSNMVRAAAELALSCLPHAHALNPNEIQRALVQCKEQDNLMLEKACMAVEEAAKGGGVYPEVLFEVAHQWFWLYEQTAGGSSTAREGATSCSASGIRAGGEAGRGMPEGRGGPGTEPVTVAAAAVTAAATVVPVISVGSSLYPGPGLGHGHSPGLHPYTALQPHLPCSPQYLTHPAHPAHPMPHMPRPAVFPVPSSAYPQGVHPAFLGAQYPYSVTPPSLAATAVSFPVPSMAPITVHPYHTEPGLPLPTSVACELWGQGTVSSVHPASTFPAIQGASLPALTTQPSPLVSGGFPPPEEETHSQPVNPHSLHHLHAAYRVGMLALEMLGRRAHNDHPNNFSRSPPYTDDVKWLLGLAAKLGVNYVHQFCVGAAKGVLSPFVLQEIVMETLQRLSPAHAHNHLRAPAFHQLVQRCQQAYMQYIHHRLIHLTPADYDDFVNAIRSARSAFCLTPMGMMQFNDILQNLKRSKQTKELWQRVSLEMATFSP

These are yes or no findings as the source states them, for the method shown. Binding seen in cells or lysates may run through a third protein. Some entries that bind do so weakly or less than the wild type. Tags and fused reporters may be left off the sequences shown.

For the assay, the target named is 3 × FLAG-tagged ZSWIM8 (zinc finger SWIM type containing 8), expressed in HEK293T cells (human) (UniProt A7E2V4). Nature of the assay: co-IP; HEK293T cells co-transfected with 3 × FLAG-ZSWIM8 and non-tagged Cdon (FL or mutants), cultured 2 days; lysate (50 mM Tris-HCl pH 7.4, 150 mM NaCl, 1% Triton X-100) immunoprecipitated with anti-FLAG antibody and Protein A Sepharose at 4 °C, immunoblot with anti-Cdon-N. Background: A western blot detects proteins with antibodies after separation by electrophoresis.
On to B1, for which the binding result was “binds”.
Consider B2, for which the binding result was “binds”.
Under B3 stands “binds”; under B4, “binds”.
With B5, the binding entry is “binds”.

These data come from publication PMC8536758.
